Results deposited as PubChem BioAssay AID504786 (Drosophila RNAi Screening Center, 2011)
The deposit covers about 21,000 reagents; this is a random part of those that have a named target and a result. 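Primary screen; positive scores mean lost reporter signal, so the sign may be inverted from the usual convention.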 Reagents against one gene are numbered here. Names joined by + are all predicted targets of the reagent.

- Aim: 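Positive regulators of HIF-driven reporter output in Drosophila cells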 (primary screen)
- System: Drosophila S2 cells with a stable HIF luciferase reporter
- Reagents: long dsRNA against Drosophila genes, about 0.2 µg dsRNA per well of a 384-well plate
- Time to read-out: three days of knock-down, then 20 h of DFO before reading
- Challenge: desferrioxamine (DFO) at 100 µM, an iron chelator that mimics hypoxia, for 20 h
- Measured: 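Firefly luciferase driven by the mouse ldh-a hypoxia-response element, measured after 20 h of 100 µM DFO; z-scores per plate, higher means more signal lost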
- Direction: z-score: higher = stronger loss of HIF reporter signal

| target | dsRNA no. | z-score, replicate 1 | z-score, replicate 2 | z-score, replicate 3 | z-score, replicate 4 |
| --- | --- | --- | --- | --- | --- |
| CG5762 | 1 | -0.2 | -0.3 | – | – |
| ng2 (new glue 2) | 1 | -0.3 | -0.3 | – | – |
| CG34404 | 1 | -0.2 | -0.2 | – | – |
| CG34404 | 2 | 0.1 | 0 | – | – |
| PheRS-m (Phenylalanyl-tRNA synthetase, mitochondrial) | 1 | -0.3 | -0.2 | – | – |
| Best1 (Bestrophin 1) | 1 | -0.3 | -0.7 | – | – |
| bdg (bedraggled) | 1 | -0.2 | -0.2 | – | – |
| BORCS6 (BLOC-1 related complex subunit 6) | 1 | -0.3 | -0.2 | – | – |
| CG8563 | 1 | 0 | -0.2 | – | – |
| slpr (slipper) | 1 | -0.3 | 0 | – | – |
| CG34299 | 1 | 0.1 | -0.2 | – | – |
| ArfGAP1 (ADP-ribosylation factor GTPase activating protein 1) | 1 | 0 | 0 | – | – |
| nsl1 (non-specific lethal 1) | 1 | 5.6 | 4.8 | – | – |
| Abl (Abl tyrosine kinase) | 1 | -0.5 | -1 | – | – |
| seq (sequoia) | 1 | -0.5 | -0.6 | – | – |
| Cchl (Cytochrome c heme lyase) | 1 | -0.1 | 0.4 | – | – |
| CG1523 | 1 | -0.3 | 0 | – | – |
| mbl (muscleblind) | 1 | -1.5 | -0.6 | -0.4 | -0.4 |
| mbl (muscleblind) | 2 | -0.1 | 0.6 | – | – |
| mbl (muscleblind) | 3 | 2.9 | 1.4 | – | – |
| CG7137 | 1 | -0.3 | -0.5 | – | – |
| Adck1 (aarF domain containing kinase 1) | 1 | -0.4 | -0.2 | – | – |
| CG15423 | 1 | 0 | -0.3 | – | – |
| CG33771 | 1 | 0.2 | 0.2 | – | – |
| Hip14 (Huntingtin-interacting protein 14) | 1 | -0.3 | -0.1 | – | – |
| CG3632 | 1 | -0.2 | 0.2 | – | – |
| CG3632 | 2 | 0.1 | 0 | – | – |
| Ac13E (Adenylyl cyclase 13E) | 1 | -0.4 | 0 | – | – |
| CG13643 | 1 | -0.1 | -0.5 | – | – |
| CG13643 | 2 | -0.2 | -0.6 | – | – |
| nmdyn-D7 | 1 | -0.3 | -0.4 | – | – |
| CG14830 | 1 | 0.2 | 0.2 | – | – |
| CG14830 | 2 | 0 | -0.6 | – | – |
| CG42232 | 1 | 0.2 | 0.8 | – | – |
| CG42232 | 2 | -0.2 | 0.4 | – | – |
| vers (versatile) | 1 | 1.6 | 0.8 | – | – |
| CG7272 | 1 | -0.2 | -0.4 | – | – |
| CG15366 (retired record) | 1 | 0.1 | 0.1 | – | – |
| Gmd (GDP-mannose 4,6-dehydratase) | 1 | -0.3 | -0.4 | – | – |
| Ipk2 (Inositol phosphate kinase 2) | 1 | -0.2 | -0.2 | – | – |
| TBC1D16 (TBC1 domain family member 16) | 1 | 0 | 0.3 | – | – |
| CG4679 | 1 | 1.3 | 0.3 | – | – |
| CG4982 | 1 | -0.2 | 0.6 | – | – |
| CG30371 | 1 | -0.2 | -0.3 | – | – |
| CG15578 | 1 | -0.2 | 0.3 | – | – |
| so (sine oculis) | 1 | 0.1 | 0.3 | 3.1 | 2.7 |
| pds5 | 1 | -0.3 | -0.9 | – | – |

Laid out differently: 4 of the entries above
CG7272 | z-score, replicate 1: -0.2; z-score, replicate 2: -0.4
CG15366 (retired record) | z-score, replicate 1: 0.1; z-score, replicate 2: 0.1
Gmd (GDP-mannose 4,6-dehydratase) | z-score, replicate 1: -0.3; z-score, replicate 2: -0.4
Ipk2 (Inositol phosphate kinase 2) | z-score, replicate 1: -0.2; z-score, replicate 2: -0.2

Additional records follow.
| target | dsRNA no. | z-score, replicate 1 | z-score, replicate 2 | z-score, replicate 3 | z-score, replicate 4 |
| --- | --- | --- | --- | --- | --- |
| r-cup (ryder cup) | 1 | -0.3 | -0.3 | – | – |
| InR (Insulin-like receptor) | 1 | 0.2 | 0.7 | – | – |
| Pgi (Phosphoglucose isomerase) | 1 | -0.3 | 0 | – | – |
| Mlc-c (Myosin light chain cytoplasmic) | 1 | -0.3 | -0.4 | – | – |
| CCT6 (Chaperonin containing TCP1 subunit 6) | 1 | 0.1 | 1.2 | – | – |
| CG6204 | 1 | -0.3 | -0.5 | – | – |
| CG15452 | 1 | -0.2 | -0.2 | – | – |
| ZIPIC (Zinc-finger protein interacting with CP190) | 1 | -0.3 | -0.7 | – | – |
| CG6362 | 1 | -0.2 | -0.1 | – | – |
| mRpS22 (mitochondrial ribosomal protein S22) | 1 | 0.5 | 0.6 | – | – |
| CG4781 | 1 | -0.1 | -0.2 | – | – |
| CG9967 | 1 | 0.5 | 0.9 | 0.3 | 0.8 |
| GstZ1 (Glutathione S transferase Z1) | 1 | -0.5 | -0.9 | – | – |
| Lamtor2 + CG30120 | 1 | 0.7 | -0.1 | – | – |
| Lamtor2 + CG30120 | 2 | -0.2 | -0.2 | – | – |
| CG17249 | 1 | -0.2 | -0.4 | – | – |
| CG12708 | 1 | -0.3 | -0.4 | – | – |
| alpha-Est3 (alpha-Esterase-3) | 1 | -0.4 | -0.1 | – | – |
| PolI (DNA polymerase iota) | 1 | 0.2 | -0.1 | – | – |
| CG8635 | 1 | -0.4 | -0.3 | – | – |
| E(spl)m4-BFM (Enhancer of split m4, Bearded family member) | 1 | -0.4 | -0.7 | – | – |
| BBS5 (Bardet-Biedl syndrome 5) | 1 | -0.2 | -0.4 | – | – |
| Gmer (GDP-4-keto-6-deoxy-D-mannose 3,5-epimerase/4-reductase) | 1 | -0.3 | -0.4 | – | – |
| CG32548 | 1 | -0.3 | -0.1 | – | – |
| CG32548 | 2 | -0.4 | -0.7 | – | – |
| RhoGAPp190 (Rho GTPase activating protein p190) | 1 | -0.4 | 0.1 | – | – |
| RhoGAPp190 (Rho GTPase activating protein p190) | 2 | -0.3 | -0.2 | – | – |
| CG10280 | 1 | -0.1 | 0.1 | – | – |
| Nmda1 (N-methyl-D-aspartate receptor-associated protein) | 1 | -0.2 | -0.5 | – | – |
| trpl (transient receptor potential-like) | 1 | -0.4 | -0.5 | – | – |
| trpl (transient receptor potential-like) | 2 | -0.1 | -0.1 | – | – |
| CG31323 | 1 | -0.4 | 0.2 | – | – |
| Gr64c (Gustatory receptor 64c) | 1 | -0.3 | -0.4 | – | – |
| CG8349 | 1 | -0.3 | -0.6 | – | – |
| swi2 | 1 | -0.1 | 0.1 | – | – |
| HP1D3csd (Heterochromatin Protein 1D3 chromoshadow domain) | 1 | -0.3 | 0 | – | – |
